Results as given in ChEMBL document CHEMBL3232851 (Bioorg Med Chem, 2014).

Experiment: Membrane permeabilizing activity of the compound in calcein-loaded egg phosphatidylcholine liposomes assessed as release of calcein from liposomes at pH 6.8 after 10 mins by fluorescence assay
Format: ADME, Microsome

## NS(=O)(=O)c1ccc(-n2nc(C(F)(F)F)cc2-c2ccccc2)cc1
  EC50: 120 µM
